# Experimental data taken from paper PMC12040169 (PLOS Biology, 2025).
# The other results are listed elsewhere or left out.
# Tested on: T1, CTL2-GFP (C. trachomatis L2/434/Bu, GFP-expressing)
# T1 construct: L2/434/Bu, GFP-expressing
# Design: species or system HeLa; Intracellular C. trachomatis growth in HeLa cells, bulk GFP fluorescence relative to DMSO
# Conditions: bulk GFP, single well; 28.5 h, 10 µM; inhibitor
row,Compound,% of control remaining
1,Cc1nc(-c2ccccc2)sc1CNC(=O)COc1ccc(F)cc1 [CBK092350],100%
2,CC(Cc1ccccn1)N(C)C(=O)c1cccc(N2CCCC2=O)c1 (stereo not drawn) [CBK282153],96.5436%
3,CO[C@@H]1CO[C@H]2[C@@H]1OC[C@@H]2Nc1nccc(-c2cccc(C#N)c2)n1 [CBK289532],129.136%
4,Cc1noc(NS(=O)(=O)c2ccc(NC(=O)COc3cccc(Br)c3)cc2)c1C [CBK264086],16.0181%
5,O=C1CC(C(=O)Nc2c(Cl)cccc2Cl)C2(CCCCC2)O1 (stereo not drawn) [CBK058445],145.129%
6,CC1=C[C@@H](CNC(=O)NC(C)C)[C@H](C(C)C)C[C@H]1CC(=O)N1CCN(C)CC1 [CBK289047],104.257%
7,Cc1noc(C)c1S(=O)(=O)Nc1nc(=O)[nH]cc1F [CBK067569],120.151%
8,CSCC[C@@H]1CN2CCC[C@H]2CN1Cc1cnc(C)n1C [CBK285423],95.8259%
9,O=C(c1ccco1)N1CCCC(n2cnc3cc(F)ccc32)C1 (stereo not drawn) [CBK284475],128.07%
10,CCn1ccc(NC(=O)CC2CCN(Cc3cccc(C(F)(F)F)c3)CC2)n1 [CBK285997],97.7651%
11,O=C(CC1CCN(Cc2cccc(C(F)(F)F)c2)CC1)NCc1ccc2[nH]c(=O)[nH]c2c1 [CBK285954],107.53%
12,O=C(Nc1ccc(S(=O)(=O)N2CCCCCC2)cc1)c1ccc(NS(=O)(=O)c2ccccc2)cc1 [CBK268018],117.685%
13,Cn1cnc2cc(C(=O)N3CC(C(=O)N4CCN(c5ccccc5)CC4)C3)ccc21 [CBK285664],132.345%
14,CCOC(=O)c1c(NC(C)=O)nc2n1CCS2 [CBK023488],159.098%
15,Cc1cccc(CN2CC[C@H]3[C@@H](C2)[C@H](c2ccsc2)CN3C(=O)c2ccccc2)c1 [CBK285619],123.729%
16,CC(C)Oc1ncc(C(=O)NCc2cccc(NC(N)=O)c2)cc1Cl [CBK306327],129.393%
17,O=C(O)C(Cc1ccccc1)N1C(=O)/C(=C/c2cccc([N+](=O)[O-])c2)SC1=S (stereo not drawn) [CBK263078],109.73%
18,CCN(CC)CC1CCCCC1=O (stereo not drawn) [CBK023965G],125.415%
19,Cc1nc(C)c(-c2csc(Nc3ccc(O)cc3C)n2)s1 [CBK267346],161.064%
20,Cn1c(=O)n(CC(=O)NC2CC2)c2cccnc21 [CBK104297],164.888%
21,Cc1ccccc1-c1ccc(C(=O)NCCc2ccc(S(N)(=O)=O)cc2)c(NCc2cccnc2)n1 [CBK076116],100%
22,CN(CC(O)CN1CCOCC1)C(=O)c1cc2sccc2[nH]1 (stereo not drawn) [CBK306437],111.853%
23,Cc1ncccc1C(=O)NC(c1ccc(F)c(F)c1)c1nccn1C (stereo not drawn) [CBK283809],127.634%
24,O=C(Cn1c(=O)[nH]c2c(oc3ccccc32)c1=O)Nc1ccccc1 [CBK287818],150.522%

row,Compound,% of control remaining
1,O=C([C@H]1O[C@H](CCN2CCN(c3ccccn3)CC2)CC[C@@H]1O)N1CCCC1 [CBK288730],121.489%
2,CCOc1ccc(OCCC#N)cc1 [CBK015880],154.753%
3,CC(C)(C)NCC(O)COc1c(F)cc(Br)cc1F (stereo not drawn) [CBK020879C],102.226%
4,Cc1cc(NC(=O)c2ccc3c(c2)C(=O)N(CC2CCCO2)C3=O)no1 (stereo not drawn) [CBK072998],108.064%
5,CC(=O)NC(CCC(N)=O)C(=O)N1CC2(CCCC2)c2c(F)cccc21 (stereo not drawn) [CBK306412],135.066%
6,Cc1cc(C)c(Oc2nc(=O)n([C@H]3C[C@@H](O)[C@@H](CO)O3)cc2F)c(C)c1 [CBK201184],154.385%
7,CCOC(=O)c1ccc(Nc2nnc3nc(C)cc(C)n23)cc1 [CBK267600],126.265%
8,CSc1ncc(Cl)c(C(=O)Nc2ccc(S(=O)(=O)N3CCC(Cc4ccccc4)CC3)cc2)n1 [CBK268870],115.609%
9,COCc1cc(C)nc2sc(C(N)=O)c(N)c12 [CBK018149],81.3675%
10,C[C@@H]1C[C@H](Nc2ccccc2)c2ccccc2N1C(=O)CCC(=O)O [CBK286820],131.923%
11,CCn1c(=O)[nH]c2cc(C(=O)NCCc3ccccc3)ccc2c1=O [CBK265773],148.354%
12,CCc1cc2c(=O)c(-c3nc4ccccc4n3C)c(C)oc2c(CN2CCOCC2)c1O [CBK262124],112.959%
13,O=C(O)c1cccc(NS(=O)(=O)c2cc(C(F)(F)F)cc(C(F)(F)F)c2)c1 [CBK155725],101.796%
14,Cc1nc[nH]c1CN1CCCN(S(=O)(=O)c2ccc(C(F)(F)F)cc2Cl)CC1 [CBK063035],71.5193%
15,O=C(CCC1CCCO1)N1CCCC(COc2ccc(F)cc2)C1 (stereo not drawn) [CBK282031],174.943%
16,CN1CCCN(c2nc(-c3cccs3)cn3ccnc23)CC1 [CBK066652],122.933%
17,O=C(/C=C/c1ccccc1)NC(=S)Nc1cccc(-c2nc3ncccc3o2)c1 [CBK263742],123.55%
18,Clc1ccc(CNc2ncc(-c3ccc(N4CCOCC4)cc3)n3ccnc23)cc1Cl [CBK091229],120.438%
19,CC1CCN(C(=O)C2CC(=O)N(c3ccc(C(=O)O)cc3)C2)CC1 (stereo not drawn) [CBK286568],100.057%
20,CCN(CC)C(=O)CN(CCc1ccc(OC)c(OC)c1)C(=O)NCc1cc(C)on1 [CBK160581],111.635%
21,CCOc1cc(C(O)c2nnc(-c3ccccc3)o2)ccc1OCC(C)C (stereo not drawn) [CBK132385],114.431%
22,O=C1c2cccc([N+](=O)[O-])c2C(=O)N1c1cc(Cl)cc(Cl)c1 [CBK115326],96.7117%
23,O=C(Nc1cccc2ccccc12)C1CCC(C(=O)Nc2cccc3ccccc23)CC1 (stereo not drawn) [CBK268706],145.285%
24,CC(=O)C1=C(C)NC(SCC(=O)c2ccc(F)cc2)=C(C#N)C1c1sccc1C (stereo not drawn) [CBK262624],117.472%

# 4 compounds from above, ordered by count of non-hydrogen atoms, smallest number first:
row,Compound,% of control remaining
14,CCOC(=O)c1c(NC(C)=O)nc2n1CCS2 [CBK023488],159.098%
2,CC(Cc1ccccn1)N(C)C(=O)c1cccc(N2CCCC2=O)c1 (stereo not drawn) [CBK282153],96.5436%
17,O=C(O)C(Cc1ccccc1)N1C(=O)/C(=C/c2cccc([N+](=O)[O-])c2)SC1=S (stereo not drawn) [CBK263078],109.73%
23,O=C(Nc1cccc2ccccc12)C1CCC(C(=O)Nc2cccc3ccccc23)CC1 (stereo not drawn) [CBK268706],145.285%
